Source: PubChem BioAssay AID1347076 (National Center for Advancing Translational Sciences (NCATS), 2019)
About 13,000 (3.2%) of roughly 400,000 compounds were called active. The inconclusive results got no clear call from the source; some entries with a clear call stand among them for comparison. The call rests on the fitted dose curve; in most records, active means well fitted cell-killing curve with a large enough effect; inconclusive means small, poorly fitted or top-dose-only effect, or effect the other way; inactive means flat fitted curve, though single readings scatter. Potencies beside an inconclusive call are fits to weak or partial responses and may not hold up.

assay: qHTS assay for MDR1-selective chemotherapeutics: Primary screen using the drug-selected MDR subline cells KB-V1; conditions: KB-V1 MDR cells viability, CellTiter-Glo, 72 h; series mostly up to 46.1 µM; further: nearly all actives have a fitted effect of over 60% in size
Outline: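 Following 72 h at 37 degrees C with compound, KB-V1 cell viability was read by CellTiter-Glo luminescence, medium being phenol-red-free DMEM plus 10% FBS; concentration-response parameters came from normalized, curve-fitted qHTS data.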
Potency means the concentration at half of the fitted maximal effect.

SMILES	Potency
O=C(NCc1ccccc1)C(=O)NCC(c1cccnc1)N1CCN(c2ccccc2)CC1 (centres undefined)	inconclusive: 23.1 µM [cytotoxic, partial curve, poor fit]
Cc1cccc(C(=O)NCCC(=O)Nc2ccc(C#N)cc2)c1	inactive
CCC(SC1=Nc2ccccc2C2=NC(CC(C)C)C(=O)N12)C(=O)Nc1ccc2c(c1)OCO2 (centres undefined)	active: 14.6 µM
CC1(Oc2ccc(CC#N)cc2)CCN(Cc2ccc(-n3ccnc3)cc2)C1 (centres undefined)	inactive
CCOC(=O)N1CCN(C(=O)c2ccc3c(c2)NC(=O)/C(=C\c2cccc(C)c2)S3)CC1	inconclusive: 32.6 µM [cytotoxic, partial curve, poor fit]
CCOC(=O)c1c(NC(=O)C(C)Sc2c[nH]c3ccccc23)sc2c1CCC2 (centres undefined)	inconclusive: 20.6 µM [cytotoxic, single point]
CN(C)CCCNc1ccc(S(N)(=O)=O)cc1[N+](=O)[O-]	inconclusive: 29.1 µM [rising, partial curve, poor fit]
CC12CCC3c4ccccc4CCC3(CO1)C2 (centres undefined)	inactive
CC(OC(=O)C1=COCCO1)C(=O)NC1CCCCC1 (centres undefined)	inactive
Cc1nn(C)c(C)c1/C=C/C(=O)c1cccs1	inconclusive: 16.4 µM [cytotoxic, partial curve]
COc1cc(/C=C(/C#N)c2ccccc2)ccc1Oc1ccc([N+](=O)[O-])cn1	active: 18.4 µM
CN1CCN(C(=O)c2cc3c(n(-c4ccccc4)c2=O)CC(C)(C)CC3=O)CC1	inactive
CCOC(=O)N(C)c1c(CC)nc2c(OCc3ccccc3C)cccn12	active: 16.4 µM
COc1ccccc1CC(NC(C)=O)C(=O)NC1CCN(C(=O)Nc2ccccc2C)CC1 (centres undefined)	inactive
O=C(c1ccc(-c2cc3ccccc3oc2=O)cc1)N1CCN(c2ccc(Cl)cc2[N+](=O)[O-])CC1	inconclusive: 2.31 µM [cytotoxic, partial curve, poor fit]
Cc1cc2cc(CN(Cc3ccco3)C(=S)NCC3CCCO3)c(=O)[nH]c2cc1C (centres undefined)	active: 9.2 µM
Nc1nnc(SCC(=O)c2ccccc2)s1	inactive
CC(C)c1ccc(NC(=O)c2ccc(Br)o2)cc1	inactive
O=C(NCCc1ccccc1)c1ccc(NC(=O)c2cccnc2)cc1	inactive
CC(=O)N1c2ccc(S(=O)(=O)N3CCCC(C(=O)N4CCC(C)CC4)C3)cc2CC1C (centres undefined)	active: 20.6 µM
O=C(CSc1nc2cc(Cl)c(Cl)cc2[nH]1)c1ccc2c(c1)OCO2	active: 8.2 µM
CC(C)[C@H](NC(=O)OC(C)(C)C)c1nnc(S(=O)(=O)Cc2c(F)cccc2Cl)o1	inconclusive: 29.1 µM [cytotoxic, single point]
CCS(=O)(=O)c1ccc2oc(SCC(=O)NCCc3ccc(OC)cc3)nc2c1	inconclusive: 29.1 µM [cytotoxic, single point]
Cc1cc(C)cc(N(CC(=O)N2CCC(C)CC2)S(=O)(=O)c2ccccc2)c1	active: 16.4 µM
CC(C)CNC(=O)c1cccc(NC(=O)COc2ccc([N+](=O)[O-])cc2)c1	inactive

Arranged by molecular weight (smallest number first): part of the list above
SMILES	Potency
Cc1nn(C)c(C)c1/C=C/C(=O)c1cccs1	inconclusive: 16.4 µM [cytotoxic, partial curve]
Nc1nnc(SCC(=O)c2ccccc2)s1	inactive
CN(C)CCCNc1ccc(S(N)(=O)=O)cc1[N+](=O)[O-]	inconclusive: 29.1 µM [rising, partial curve, poor fit]
Cc1cccc(C(=O)NCCC(=O)Nc2ccc(C#N)cc2)c1	inactive
CC(C)c1ccc(NC(=O)c2ccc(Br)o2)cc1	inactive
O=C(NCCc1ccccc1)c1ccc(NC(=O)c2cccnc2)cc1	inactive
CCOC(=O)N(C)c1c(CC)nc2c(OCc3ccccc3C)cccn12	active: 16.4 µM
CC(C)CNC(=O)c1cccc(NC(=O)COc2ccc([N+](=O)[O-])cc2)c1	inactive
CC1(Oc2ccc(CC#N)cc2)CCN(Cc2ccc(-n3ccnc3)cc2)C1 (centres undefined)	inactive
COc1cc(/C=C(/C#N)c2ccccc2)ccc1Oc1ccc([N+](=O)[O-])cn1	active: 18.4 µM
O=C(CSc1nc2cc(Cl)c(Cl)cc2[nH]1)c1ccc2c(c1)OCO2	active: 8.2 µM
CN1CCN(C(=O)c2cc3c(n(-c4ccccc4)c2=O)CC(C)(C)CC3=O)CC1	inactive
Cc1cc(C)cc(N(CC(=O)N2CCC(C)CC2)S(=O)(=O)c2ccccc2)c1	active: 16.4 µM
CCOC(=O)c1c(NC(=O)C(C)Sc2c[nH]c3ccccc23)sc2c1CCC2 (centres undefined)	inconclusive: 20.6 µM [cytotoxic, single point]
Cc1cc2cc(CN(Cc3ccco3)C(=S)NCC3CCCO3)c(=O)[nH]c2cc1C (centres undefined)	active: 9.2 µM
CCC(SC1=Nc2ccccc2C2=NC(CC(C)C)C(=O)N12)C(=O)Nc1ccc2c(c1)OCO2 (centres undefined)	active: 14.6 µM
O=C(c1ccc(-c2cc3ccccc3oc2=O)cc1)N1CCN(c2ccc(Cl)cc2[N+](=O)[O-])CC1	inconclusive: 2.31 µM [cytotoxic, partial curve, poor fit]

Shown as a markdown table: 2 of the compounds above.

| SMILES | Potency |
| --- | --- |
| CN(C)CCCNc1ccc(S(N)(=O)=O)cc1[N+](=O)[O-] | inconclusive: 29.1 µM [rising, partial curve, poor fit] |
| Cc1cc2cc(CN(Cc3ccco3)C(=S)NCC3CCCO3)c(=O)[nH]c2cc1C (centres undefined) | active: 9.2 µM |

Carrying on.

SMILES	Potency
COCCNC(=O)C[C@@H]1C[C@H]2c3cc(NC(=O)Nc4ccc(F)cc4)ccc3O[C@H]2[C@H](CO)O1	inconclusive: 0.13 µM [rising, full curve]
CCOC(=O)Nc1ccc2c(c1)N(C(=O)CN1CCN(C)CC1)c1ccccc1CC2	inconclusive: 9.2 µM [rising, partial curve, poor fit]
O=C(Cc1cccs1)N(Cc1cccs1)C1(C(=O)NC2CCCC2)CCCCC1	active: 8.2 µM
COc1cc(CC(=O)Nc2cccc(C(F)(F)F)c2)cc(OC)c1OC	inconclusive: 20.6 µM [cytotoxic, single point]
CCCC(=O)Nc1nc2ccc(NC(=O)c3cccnc3)cc2s1	inconclusive: 20.6 µM [cytotoxic, single point]
Cc1noc(-c2ccc(C(F)(F)F)cc2)c1NC(=O)Nc1ccc(Cl)cc1	inconclusive: 20.6 µM [cytotoxic, single point]
CCCCCCCCNC(=O)c1cccnc1SCC(=O)Nc1ccccc1OC	inconclusive: 9.2 µM [cytotoxic, partial curve]
COc1ccccc1-c1cc(C(=O)N/N=C\c2cnn(C)c2C)c2ccccc2n1	inconclusive: 11.6 µM [cytotoxic, partial curve, poor fit]
O=P(COc1ccccc1)(c1ccccc1)c1ccccc1	active: 14.6 µM
COc1cc2c(cc1OC)NC(=O)C2	inconclusive: 29.1 µM [cytotoxic, partial curve, poor fit]
CCn1cc(/C=N/NC(=O)c2ccc3c(c2)OCO3)cn1	inconclusive: 32.6 µM [rising, single point]
O=C(Nc1nnc(C2CC2)s1)c1cc(Cl)sc1Cl	inactive
COc1ccc(-c2cc3c(nn2)-c2ccccc2C3=O)cc1	active: 7.31 µM
CSc1ccc(C(=O)C2CCCN(C(=O)c3ccc4c(c3)OCO4)C2)cc1 (centres undefined)	inactive
COc1ccc(N2CCN(C(=O)CSc3nnc4c(C)cc5ccccc5n34)CC2)cc1	inconclusive: 25.9 µM [cytotoxic, partial curve, poor fit]
SCc1nc2ccc(Cl)cc2[nH]1	inactive
COc1ccc(/C=N\NC(=O)c2sccc2C)cc1Cn1nc(C)cc1C	active: 6.51 µM
CCCOc1ccccc1/C=C1/C(=O)ON=C1C	inconclusive: 10.3 µM [rising, partial curve, poor fit]
COc1ccc(-c2nc(SCC(=O)Nc3nccs3)c(-c3ccc(Cl)cc3)[nH]2)cc1	inconclusive: 18.4 µM [cytotoxic, single point]
COc1ccc(N=C2NN=C(c3ccc4c(c3)OCCO4)CS2)cc1	inconclusive: 20.6 µM [rising, partial curve, poor fit]
CCOc1ccc(-c2nc(CCl)cs2)cc1	inactive
CCOC(=O)c1ccccc1NC(=O)N(Cc1ccco1)C1CCN(C(C)=O)CC1	inconclusive: 16.4 µM [cytotoxic, single point]
CNC(=O)c1ccc(Nc2nnc(-c3ccc(C)c(S(=O)(=O)N4CCOCC4)c3)c3ccccc23)cc1	inactive
CCOC(=O)[C@@H]1[C@H]2COc3ccccc3[C@H]2N2C(=O)N(c3ccccc3)C(=O)[C@]12C	inactive
Cc1ccc(NC(=O)c2cccs2)cc1[N+](=O)[O-]	inconclusive: 18.4 µM [cytotoxic, single point]

SMILES	Potency
CCOC(=O)C(c1ccccc1)C(Nc1ccccc1)c1ccccn1 (centres undefined)	inconclusive: 16.4 µM [cytotoxic, partial curve]
COc1cc2nc(NCC(C)c3ccccc3)n3nc(-c4ccccc4)nc3c2cc1OC (centres undefined)	inactive
CC1(C#N)c2ccccc2C(Br)=CN1C(=O)c1ccccc1 (centres undefined)	inconclusive: 16.4 µM [cytotoxic, partial curve]
Cc1ccc(C)c(NC(=S)c2ccc3ccccc3n2)c1	inactive
CCc1cccc(NC(=O)CN2C=NS(=O)(=O)c3ccccc32)c1	inconclusive: 29.1 µM [rising, single point]
CC1=C(C(=O)NCc2ccc(Cl)cc2)C2(CCCCCC2)OC1=O	inactive
O=C(NCC1CCCO1)c1csc(Nc2cccc3ccccc23)n1 (centres undefined)	inconclusive: 4.61 µM [cytotoxic, full curve]
O=C(CSc1n[nH]c(-c2ccccn2)n1)Nc1cccc(Cl)c1	inactive
O=C(NCC(c1ccccc1)N1CCCC1)C1CCN(C(=O)Nc2ccccc2)CC1 (centres undefined)	inactive
N#Cc1nc(Cc2cccc3ccccc23)oc1NCc1ccco1	inconclusive: 18.4 µM [cytotoxic, single point]
COc1ccccc1Nc1nc(N)nc(CSC(=S)N2CCN(c3ccccc3)CC2)n1	inconclusive: 29.1 µM [cytotoxic, single point]
Nc1c(Cl)ncnc1Nc1ccc(C(=O)O)cc1	inconclusive: 29.1 µM [rising, partial curve, poor fit]
COc1ccc(C2(O)CC3CCC(C2)N3c2cc(C)nc(-c3ccccc3)n2)cc1 (centres undefined)	inconclusive: 16.4 µM [cytotoxic, partial curve]
CCC(C)NC(=O)c1cc(OC)c(OC)c(OC)c1 (centres undefined)	inconclusive: 29.1 µM [cytotoxic, single point]
CC(Oc1ccc(Cl)cc1)c1ccnn1S(=O)(=O)c1ccccc1 (centres undefined)	inconclusive: 20.6 µM [cytotoxic, single point]
CC1CCN(CCOCCOc2ccc(Br)cc2Cl)CC1	active: 23.1 µM
COc1cc(C(=O)NNC(=O)c2ccoc2C)cc(OC)c1OC	inconclusive: 32.6 µM [rising, single point]
COc1ccccc1C(=O)Nc1ccc(C(=O)OCc2cc(=O)n3ccsc3n2)cc1	inactive
COc1ccc(CN(C(=O)Cc2c[nH]c3ccccc23)C(C(=O)NC2CCCCC2)c2ccc(C)o2)cc1 (centres undefined)	inconclusive: 35.5 µM [cytotoxic, single point]
CCC(=O)Nc1sc(C(=O)Nc2ccccc2)c(C)c1C(=O)OC	inactive
CCN(CC(=O)Nc1cc(Cl)ccc1C)C(=O)C1CC1	inconclusive: 20.6 µM [cytotoxic, single point]
O=C(Nc1cccc(Cl)c1)c1ccc(Cn2cc(Cl)cn2)cc1	inconclusive: 18.4 µM [cytotoxic, single point]
O=C(NCc1ccncc1)c1ccc(N2CCCC2)c([N+](=O)[O-])c1	inconclusive: 10.3 µM [cytotoxic, partial curve]
CCOC(=O)c1sc(NC(=O)c2cc3nc(-c4ccc(Br)cc4)cc(C(F)(F)F)n3n2)c(C(=O)OCC)c1C	inactive
